The assay deals with integrin α2β1 (human (endogenous in CAFs)) (UniProt P17301+P05556). Description: proximity ligation.

Chains of the proteins cited; added tags and fusions are not shown. Lines headed by an entry give the natural chain unless they say otherwise; changes in a name come on top.
UniProt P17301: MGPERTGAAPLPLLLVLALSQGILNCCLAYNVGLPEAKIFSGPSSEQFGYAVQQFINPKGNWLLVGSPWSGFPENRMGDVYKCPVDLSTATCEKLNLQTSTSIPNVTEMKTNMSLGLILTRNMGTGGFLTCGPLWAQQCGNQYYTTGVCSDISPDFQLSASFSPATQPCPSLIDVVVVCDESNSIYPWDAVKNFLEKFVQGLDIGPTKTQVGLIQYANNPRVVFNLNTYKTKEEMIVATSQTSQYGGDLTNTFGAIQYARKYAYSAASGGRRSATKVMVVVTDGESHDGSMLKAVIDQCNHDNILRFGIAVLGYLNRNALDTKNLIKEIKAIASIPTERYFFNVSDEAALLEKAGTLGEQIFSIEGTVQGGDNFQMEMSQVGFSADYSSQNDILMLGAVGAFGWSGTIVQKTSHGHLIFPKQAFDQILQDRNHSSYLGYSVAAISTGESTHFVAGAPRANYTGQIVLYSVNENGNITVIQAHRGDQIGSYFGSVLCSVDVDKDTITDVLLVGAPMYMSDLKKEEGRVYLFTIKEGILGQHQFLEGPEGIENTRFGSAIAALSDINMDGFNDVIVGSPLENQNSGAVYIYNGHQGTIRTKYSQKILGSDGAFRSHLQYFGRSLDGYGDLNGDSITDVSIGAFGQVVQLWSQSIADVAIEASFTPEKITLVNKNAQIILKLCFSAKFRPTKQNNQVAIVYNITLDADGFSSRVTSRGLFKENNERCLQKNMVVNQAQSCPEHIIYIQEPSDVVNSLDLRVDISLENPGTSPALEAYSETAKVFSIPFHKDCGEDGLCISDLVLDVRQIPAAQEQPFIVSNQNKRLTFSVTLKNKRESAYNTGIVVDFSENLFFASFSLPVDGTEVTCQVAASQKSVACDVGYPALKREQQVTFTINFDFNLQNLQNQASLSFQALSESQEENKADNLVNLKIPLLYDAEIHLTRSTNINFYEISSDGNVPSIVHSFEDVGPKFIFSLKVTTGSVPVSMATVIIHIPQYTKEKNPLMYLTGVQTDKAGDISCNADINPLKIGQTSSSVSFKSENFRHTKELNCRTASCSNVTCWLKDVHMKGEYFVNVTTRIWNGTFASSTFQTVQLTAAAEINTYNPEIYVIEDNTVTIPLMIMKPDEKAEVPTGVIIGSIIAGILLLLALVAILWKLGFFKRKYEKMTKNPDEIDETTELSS
UniProt P05556: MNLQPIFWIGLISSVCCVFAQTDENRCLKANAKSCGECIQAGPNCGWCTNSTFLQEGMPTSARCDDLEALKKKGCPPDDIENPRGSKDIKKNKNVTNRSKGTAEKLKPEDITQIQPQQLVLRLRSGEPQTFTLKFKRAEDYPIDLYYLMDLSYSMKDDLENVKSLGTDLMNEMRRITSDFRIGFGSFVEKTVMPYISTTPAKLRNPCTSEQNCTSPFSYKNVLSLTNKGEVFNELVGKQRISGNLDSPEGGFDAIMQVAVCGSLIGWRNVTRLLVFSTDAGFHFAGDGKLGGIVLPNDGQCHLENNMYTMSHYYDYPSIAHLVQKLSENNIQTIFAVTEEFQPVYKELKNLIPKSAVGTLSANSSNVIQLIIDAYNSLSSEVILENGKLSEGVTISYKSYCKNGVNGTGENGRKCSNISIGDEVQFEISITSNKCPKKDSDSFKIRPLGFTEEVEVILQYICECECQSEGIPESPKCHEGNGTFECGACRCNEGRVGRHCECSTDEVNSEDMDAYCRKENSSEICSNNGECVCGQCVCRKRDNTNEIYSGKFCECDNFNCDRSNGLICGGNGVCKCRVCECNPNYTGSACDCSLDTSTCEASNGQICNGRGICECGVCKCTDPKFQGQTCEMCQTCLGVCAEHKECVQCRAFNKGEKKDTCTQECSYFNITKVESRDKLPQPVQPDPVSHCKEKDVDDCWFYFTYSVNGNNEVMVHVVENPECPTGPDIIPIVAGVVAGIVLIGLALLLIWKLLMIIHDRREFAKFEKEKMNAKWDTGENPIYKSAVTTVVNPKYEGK
UniProt P61073: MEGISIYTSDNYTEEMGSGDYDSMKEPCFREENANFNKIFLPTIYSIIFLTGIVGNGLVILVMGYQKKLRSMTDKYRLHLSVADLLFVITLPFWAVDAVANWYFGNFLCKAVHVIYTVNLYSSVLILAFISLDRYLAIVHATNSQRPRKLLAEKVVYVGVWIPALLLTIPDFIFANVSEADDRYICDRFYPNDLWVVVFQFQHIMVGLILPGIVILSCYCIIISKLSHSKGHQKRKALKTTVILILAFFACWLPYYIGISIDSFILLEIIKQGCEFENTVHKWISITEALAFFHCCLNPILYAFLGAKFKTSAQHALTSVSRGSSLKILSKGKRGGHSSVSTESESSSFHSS

Results are given in words; binding and its absence hold for the method and conditions named. In cells and extracts the contact can be indirect. Some entries that bind do so weakly or less than the wild type.

Regarding “CXCR4 (from UniProt P61073 1-352) (receptor)”, the binding entry is “binds”.

The values above are taken from article doi:10.1101/099465.
